The record followed here is article PMC11106861.

These are yes or no findings as the source states them, for the method shown. In cells and extracts the contact can be indirect. A result given as binding can be weak or reduced; the word gives no strength.

The target of experiment [1] is T1, Suppressor of Hairy wings (Su(Hw)) insulator-binding protein (Drosophila (endogenous in S2 cells)) (UniProt P08970).
T1 sequence: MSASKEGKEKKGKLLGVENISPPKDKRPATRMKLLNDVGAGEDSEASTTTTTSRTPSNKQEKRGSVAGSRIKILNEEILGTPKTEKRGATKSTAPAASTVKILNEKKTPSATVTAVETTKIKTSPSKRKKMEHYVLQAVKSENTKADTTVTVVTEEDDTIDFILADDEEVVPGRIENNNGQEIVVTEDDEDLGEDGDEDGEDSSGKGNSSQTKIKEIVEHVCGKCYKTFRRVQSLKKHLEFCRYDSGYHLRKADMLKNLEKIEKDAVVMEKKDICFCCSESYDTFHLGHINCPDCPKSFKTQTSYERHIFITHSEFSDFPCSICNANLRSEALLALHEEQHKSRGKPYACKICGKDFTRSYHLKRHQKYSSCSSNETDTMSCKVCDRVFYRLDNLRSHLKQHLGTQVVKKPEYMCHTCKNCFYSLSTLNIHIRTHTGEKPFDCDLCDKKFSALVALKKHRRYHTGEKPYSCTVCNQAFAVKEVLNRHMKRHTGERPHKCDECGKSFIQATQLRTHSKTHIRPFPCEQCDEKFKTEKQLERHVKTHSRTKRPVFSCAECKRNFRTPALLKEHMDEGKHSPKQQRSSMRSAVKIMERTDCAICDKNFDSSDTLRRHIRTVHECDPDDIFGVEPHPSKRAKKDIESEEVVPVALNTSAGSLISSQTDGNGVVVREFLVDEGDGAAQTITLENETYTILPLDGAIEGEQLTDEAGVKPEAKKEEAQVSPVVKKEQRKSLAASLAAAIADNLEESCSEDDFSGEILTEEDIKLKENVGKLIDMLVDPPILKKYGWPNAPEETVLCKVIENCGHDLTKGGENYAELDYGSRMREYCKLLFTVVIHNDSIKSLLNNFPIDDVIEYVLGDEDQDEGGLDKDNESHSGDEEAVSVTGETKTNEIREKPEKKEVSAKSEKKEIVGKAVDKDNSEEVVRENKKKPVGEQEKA
Nature of the experiment: co-IP; immunoprecipitations from nuclear protein extract of Drosophila S2 cells with antibodies against Combgap or Su(Hw); IgG of non-immunized rabbits as negative control; Western blot. (In general: A western blot detects proteins with antibodies after separation by electrophoresis.)

Experiment [2] addresses Combgap (Drosophila (endogenous in S2 cells)). The description is as above.

Turning to “Combgap (Drosophila (endogenous in S2 cells))”, the binding entry in experiment [1] was “binds”.

B1: Suppressor of Hairy wings (Su(Hw)) insulator-binding protein (protein, UniProt P08970 1-941)
chain: MSASKEGKEKKGKLLGVENISPPKDKRPATRMKLLNDVGAGEDSEASTTTTTSRTPSNKQEKRGSVAGSRIKILNEEILGTPKTEKRGATKSTAPAASTVKILNEKKTPSATVTAVETTKIKTSPSKRKKMEHYVLQAVKSENTKADTTVTVVTEEDDTIDFILADDEEVVPGRIENNNGQEIVVTEDDEDLGEDGDEDGEDSSGKGNSSQTKIKEIVEHVCGKCYKTFRRVQSLKKHLEFCRYDSGYHLRKADMLKNLEKIEKDAVVMEKKDICFCCSESYDTFHLGHINCPDCPKSFKTQTSYERHIFITHSEFSDFPCSICNANLRSEALLALHEEQHKSRGKPYACKICGKDFTRSYHLKRHQKYSSCSSNETDTMSCKVCDRVFYRLDNLRSHLKQHLGTQVVKKPEYMCHTCKNCFYSLSTLNIHIRTHTGEKPFDCDLCDKKFSALVALKKHRRYHTGEKPYSCTVCNQAFAVKEVLNRHMKRHTGERPHKCDECGKSFIQATQLRTHSKTHIRPFPCEQCDEKFKTEKQLERHVKTHSRTKRPVFSCAECKRNFRTPALLKEHMDEGKHSPKQQRSSMRSAVKIMERTDCAICDKNFDSSDTLRRHIRTVHECDPDDIFGVEPHPSKRAKKDIESEEVVPVALNTSAGSLISSQTDGNGVVVREFLVDEGDGAAQTITLENETYTILPLDGAIEGEQLTDEAGVKPEAKKEEAQVSPVVKKEQRKSLAASLAAAIADNLEESCSEDDFSGEILTEEDIKLKENVGKLIDMLVDPPILKKYGWPNAPEETVLCKVIENCGHDLTKGGENYAELDYGSRMREYCKLLFTVVIHNDSIKSLLNNFPIDDVIEYVLGDEDQDEGGLDKDNESHSGDEEAVSVTGETKTNEIREKPEKKEVSAKSEKKEIVGKAVDKDNSEEVVRENKKKPVGEQEKA
Regarding B1, the binding entry in experiment [2] is given as “binds”.
